Results are given in words; binding and its absence hold for the method and conditions named. In cells and extracts the contact can be indirect. Some binding calls cover weakened binding; strength is not graded here. For some of these results: Tags and fused reporters may be left off the sequences shown. Each block holds one molecule with its values, some of them ahead of it.
Assays:
[1] = target: p21 stably overexpressed in HuH-7 and HepG2 cells (UniProt P38936); test: co-IP; HuH-7 and HepG2 cells stably overexpressing p21, transfected with CMTM6 plasmids (HuH-7) or CMTM6 small interfering RNAs (HepG2)
[2] = target: T1, endogenous CMTM6 (human (endogenous in HuH-7, HepG2 and 293T)) (UniProt Q9NX76); test: co-IP; endogenous proteins; HuH-7 and HepG2 cell lysates immunoprecipitated with control IgG, anti-CMTM6 or anti-p21 antibody; Western blot
T1 sequence: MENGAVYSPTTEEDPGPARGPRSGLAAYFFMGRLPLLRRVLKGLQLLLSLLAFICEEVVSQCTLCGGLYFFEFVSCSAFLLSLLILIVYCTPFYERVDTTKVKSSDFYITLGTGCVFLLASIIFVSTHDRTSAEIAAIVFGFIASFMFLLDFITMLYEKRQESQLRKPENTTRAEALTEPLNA

Amino acid sequences for entries named in this document (tags omitted).
UniProt P38936: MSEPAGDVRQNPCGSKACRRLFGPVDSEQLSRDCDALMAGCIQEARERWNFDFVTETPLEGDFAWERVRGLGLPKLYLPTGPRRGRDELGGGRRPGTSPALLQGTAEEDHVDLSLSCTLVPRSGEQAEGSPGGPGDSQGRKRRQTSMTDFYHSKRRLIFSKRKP
UniProt Q12834: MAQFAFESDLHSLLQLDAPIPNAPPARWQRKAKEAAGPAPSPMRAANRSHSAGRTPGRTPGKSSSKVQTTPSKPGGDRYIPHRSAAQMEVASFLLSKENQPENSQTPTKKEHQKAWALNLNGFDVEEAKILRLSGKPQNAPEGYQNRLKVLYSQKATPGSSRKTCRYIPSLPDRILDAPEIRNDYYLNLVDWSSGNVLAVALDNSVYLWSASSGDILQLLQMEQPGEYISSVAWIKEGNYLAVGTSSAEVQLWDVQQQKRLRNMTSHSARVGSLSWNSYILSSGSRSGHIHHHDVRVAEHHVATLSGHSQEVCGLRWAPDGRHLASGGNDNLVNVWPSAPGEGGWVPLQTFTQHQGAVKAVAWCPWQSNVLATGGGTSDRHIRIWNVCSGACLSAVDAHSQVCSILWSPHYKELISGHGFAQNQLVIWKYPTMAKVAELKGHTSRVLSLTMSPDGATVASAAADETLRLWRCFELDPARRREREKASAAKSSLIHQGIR
UniProt Q9NZJ0: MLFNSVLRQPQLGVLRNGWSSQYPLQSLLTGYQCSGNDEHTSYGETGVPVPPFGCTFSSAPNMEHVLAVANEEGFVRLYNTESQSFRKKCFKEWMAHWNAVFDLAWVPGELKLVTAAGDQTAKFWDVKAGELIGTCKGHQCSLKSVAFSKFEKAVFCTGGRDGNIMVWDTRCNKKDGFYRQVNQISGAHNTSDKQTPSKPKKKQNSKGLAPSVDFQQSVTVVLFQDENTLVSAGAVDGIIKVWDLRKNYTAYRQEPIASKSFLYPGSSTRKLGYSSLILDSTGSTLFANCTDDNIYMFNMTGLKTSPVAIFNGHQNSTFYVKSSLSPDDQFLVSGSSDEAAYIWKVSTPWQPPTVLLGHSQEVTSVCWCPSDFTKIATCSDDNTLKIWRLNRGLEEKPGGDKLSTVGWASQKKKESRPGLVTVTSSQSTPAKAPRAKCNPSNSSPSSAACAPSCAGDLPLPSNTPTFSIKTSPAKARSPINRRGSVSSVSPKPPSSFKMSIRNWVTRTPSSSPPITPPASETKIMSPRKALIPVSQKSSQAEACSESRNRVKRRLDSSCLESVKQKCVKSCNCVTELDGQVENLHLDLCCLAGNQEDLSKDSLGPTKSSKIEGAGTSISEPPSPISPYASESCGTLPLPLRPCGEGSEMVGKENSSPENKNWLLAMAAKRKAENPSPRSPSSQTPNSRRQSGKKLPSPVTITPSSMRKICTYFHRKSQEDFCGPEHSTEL

[3] = target: T2, Flag-CMTM6 (UniProt Q9NX76); test: co-IP; 293T cells transfected with either Flag-CMTM6 or Myc-p21; immunoprecipitation with control IgG, anti-Flag or anti-Myc antibody, Protein A/G magnetic beads, IP Lysis Buffer, 4 °C; Western blot
T2 sequence: T1 sequence

[4] = target: endogenous p21 (human (endogenous in HuH-7, HepG2 and 293T)) (UniProt P38936); test: co-IP; endogenous proteins; HuH-7 and HepG2 cell lysates immunoprecipitated with control IgG, anti-CMTM6 or anti-p21 antibody; Western blot
[5] = target: Myc-p21 (UniProt P38936); test: co-IP; 293T cells transfected with either Flag-CMTM6 or Myc-p21; immunoprecipitation with control IgG, anti-Flag or anti-Myc antibody, Protein A/G magnetic beads, IP Lysis Buffer, 4 °C; Western blot

- binding [1]: binds
Molecule: CDC20 (from UniProt Q12834 1-499)

- binding [1]: binds
Molecule: CDT2 (from UniProt Q9NZJ0 1-730)

- binding [2]: binds
- binding [3]: binds
Molecule: endogenous p21 (from UniProt P38936 1-164)

- binding [1]: binds
B1: CMTM6 expressed from CMTM6 plasmids in HuH-7 cells (protein, UniProt Q9NX76 1-183)
chain: T1 sequence

- binding [4]: binds
- binding [5]: binds
B2: endogenous CMTM6 (protein, UniProt Q9NX76 1-183)
chain: T1 sequence

— paper PMC8933468
